This experiment has as its system BDF1 mice, P388 leukemia ip, median survival T/C. Nature of the experiment: NCI In Vivo Anticancer Drug Screen. Data for tumor model P388 Leukemia (intraperitoneal) in B6D2F1 (BDF1) mice. As to conditions: T/C endpoint: median survival time, higher T/C = longer survival. The method, boiled down:
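Survival ratio, drug arm over vehicle arm, in mice with a transplanted tumour.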

Setting [1] is: dose: 100.0 mg/kg/injection, schedule: Q04DX003 (ip), vehicle: saline with Tween-80.
The mark [2] stands for this setting: dose: 200.0 mg/kg/injection, schedule: Q04DX003 (ip), vehicle: saline with Tween-80.
Setting [3] is: dose: 50.0 mg/kg/injection, schedule: Q01DX009 (ip), vehicle: Klucel (hydroxypropylcellulose) (HPC).

Each structure is given as a SMILES string. The list is a part of this screen's results and no random one: it is rich in T/C values a quarter to a half above the control, in often repeated tests (any T/C) and in doses without a T/C. Further doses and runs are listed elsewhere. T/C gives the treated animals as a percentage of the vehicle group. Some doses have a count of surviving animals in place of a T/C: the source files T/C as zero there, which appears to mark a toxic dose or a test without result, not a measured value. Some survivor counts are full or nearly so, which does not show that the dose was tolerated: the source hardly ever lists a survival T/C far under the control, and the zero likely stands for such cases as well. Survivors were counted at the toxicity check, usually on the fifth day, unless a day is given; later deaths do not show. Schedules are NCI's codes, taken here to give the interval after Q, in days (D) or hours (H), and the number of doses after X. For survival time, this PubChem deposit counts one and a half times the control or more as active, and values a quarter to a half above the control carry no call in these data; other NCI protocols may use other cut-offs. Some entries were tested several times; the values are given in rising order. Some T/C values carry the count of animals alive at the toxicity check (mostly the fifth day); without a count, all were alive then.

With `COc1cccc(/C=C/[N+](=O)[O-])c1`, where the note is “dose: 30.0 mg/kg/injection, schedule: Q01DX009 (ip), vehicle: saline with Tween-80”, the T/C was 125 % of control. Moreover, the survivor count (dose: 45.0 mg/kg/injection, schedule: Q01DX009 (ip), vehicle: Klucel (hydroxypropylcellulose) (HPC)) was 5 of 6; the survivor count (dose: 60.0 mg/kg/injection, schedule: Q01DX009 (ip), vehicle: Klucel (hydroxypropylcellulose) (HPC)) is recorded as 0 of 6; the survivor count (dose: 120.0 mg/kg/injection, schedule: Q01DX009 (ip), vehicle: saline with Tween-80) was 3 of 6.

Take `CC(C)=CC[P+](CCC[P+](CC=C(C)C)(c1ccccc1)c1ccccc1)(c1ccccc1)c1ccccc1`: the survivor count by setting is: (dose: 50.0 mg/kg/injection, schedule: Q01DX005 (ip), vehicle: saline) 0 of 6; (dose: 100.0 mg/kg/injection, schedule: Q01DX005 (ip), vehicle: saline) 0 of 6; (dose: 200.0 mg/kg/injection, schedule: Q01DX005 (ip), vehicle: saline) 0 of 6.

On to `FC(F)(F)c1cccc(-c2nc3nc(Cl)c(Cl)nc3[nH]2)c1`, for which, under setting [1], the T/C was 129 % of control [5 of 6 alive]. In addition, the survivor count (dose: 150.0 mg/kg/injection, schedule: Q01DX009 (ip), vehicle: saline with Tween-80) is 1 of 6; the survivor count under setting [2] was 5 of 6; the survivor count (dose: 300.0 mg/kg/injection, schedule: Q04DX003 (ip), vehicle: saline with Tween-80) is on record as 0 of 6.

As to `C=C(C)CSC(=S)NNc1ccccc1`, under “dose: 225.0 mg/kg/injection, schedule: Q01DX009 (ip), vehicle: Klucel (hydroxypropylcellulose) (HPC)”, the T/C was 125 % of control. Also, the survivor count by setting is: (dose: 225.0 mg/kg/injection, schedule: Q01DX009 (ip), vehicle: alcohol) 1 of 6; (dose: 335.0 mg/kg/injection, schedule: Q01DX009 (ip), vehicle: alcohol) 0 of 6; (dose: 400.0 mg/kg/injection, schedule: Q01DX001 (ip), vehicle: alcohol) 1 of 6.

On to `CC(=O)Nc1ccc(OCCOC(=O)Nc2ccc(C)cc2[N+](=O)[O-])cc1`, for which, under setting [3], the survivor count is recorded as 6 of 6.

In the case of `Cc1cc2c(oc1=O)C(=O)c1cccc(O)c1C2=O`, the T/C is 132 % of control (dose: 1.5 mg/kg/injection, schedule: Q01DX009 (ip), vehicle: Klucel (hydroxypropylcellulose) (HPC)); 141 % of control (dose: 2.3 mg/kg/injection, schedule: Q01DX009 (ip), vehicle: Klucel (hydroxypropylcellulose) (HPC)); 129 % of control (dose: 3.6 mg/kg/injection, schedule: Q01DX009 (ip), vehicle: saline); 128 % of control (dose: 5.4 mg/kg/injection, schedule: Q01DX009 (ip), vehicle: saline); 128 % of control (dose: 8.2 mg/kg/injection, schedule: Q01DX009 (ip), vehicle: Klucel (hydroxypropylcellulose) (HPC)); 127 % of control [5 of 6 alive] (dose: 12.0 mg/kg/injection, schedule: Q01DX009 (ip), vehicle: Klucel (hydroxypropylcellulose) (HPC)). In addition, the T/C is, setting by setting: (dose: 18.75 mg/kg/injection, schedule: Q01DX009 (ip), vehicle: Klucel (hydroxypropylcellulose) (HPC)) 144 % of control; (dose: 37.5 mg/kg/injection, schedule: Q01DX009 (ip), vehicle: Klucel (hydroxypropylcellulose) (HPC)) 141 % of control. In addition, the survivor count is on record as 4 of 6 (dose: 75.0 mg/kg/injection, schedule: Q01DX009 (ip), vehicle: Klucel (hydroxypropylcellulose) (HPC)); 2 of 6 (dose: 150.0 mg/kg/injection, schedule: Q01DX009 (ip), vehicle: Klucel (hydroxypropylcellulose) (HPC)); 0 of 6 (dose: 300.0 mg/kg/injection, schedule: Q01DX009 (ip), vehicle: Klucel (hydroxypropylcellulose) (HPC)).

`CC12CCC(O)CC1CCC1C2CCC2(C)C(C3=CC(=O)OC3)CCC12` (stereo not given): the T/C (dose: 70.0 mg/kg/injection, schedule: Q01DX010 (ip), vehicle: carboxymethylcellulose (CMC)) was 127 % of control.

For `CCOC(=O)C1C(=O)C(CN(CCCl)CCCl)C(=O)C(C(=O)OCC)C1c1ccc(O)cc1` (stereo not given), the T/C reads like this: (dose: 40.0 mg/kg/injection, schedule: Q04DX003 (ip), vehicle: Klucel (hydroxypropylcellulose) (HPC)) 135 % of control; (dose: 100.0 mg/kg/injection, schedule: Q04DX003 (ip), vehicle: Klucel (hydroxypropylcellulose) (HPC)) 145 % of control. The survivor count reads like this: under setting [3], 6 of 6; (dose: 100.0 mg/kg/injection, schedule: Q01DX009 (ip), vehicle: Klucel (hydroxypropylcellulose) (HPC)) 6 of 6; under setting [1], 5 of 6; (dose: 200.0 mg/kg/injection, schedule: Q01DX009 (ip), vehicle: Klucel (hydroxypropylcellulose) (HPC)) 0 of 6; under setting [2], 5 of 6; (dose: 400.0 mg/kg/injection, schedule: Q01DX009 (ip), vehicle: Klucel (hydroxypropylcellulose) (HPC)) 0 of 6. Further, the survivor count (dose: 400.0 mg/kg/injection, schedule: Q04DX003 (ip), vehicle: saline with Tween-80) is recorded as 5 of 6.

Take `CCOC(=O)N1CCN(CCCCCCOc2ccc(C3CCCCC3)cc2)CC1`: the T/C by setting is: (dose: 100.0 mg/kg/injection, schedule: Q01DX009 (ip), vehicle: saline with Tween-80) 126 % of control; (dose: 200.0 mg/kg/injection, schedule: Q01DX009 (ip), vehicle: saline with Tween-80) 127 % of control. For the setting “dose: 400.0 mg/kg/injection, schedule: Q01DX009 (ip), vehicle: saline with Tween-80”, the survivor count was 1 of 6.

On to `CN(C)C(CCc1ccccc1)C(=O)O` (stereo not given), for which the survivor count (dose: 400.0 mg/kg/injection, schedule: Q04DX003 (ip), vehicle: saline) is 6 of 6.

`IP(c1ccccc1)(c1ccccc1)(c1ccccc1)N1C2CCCCC21` (stereo not given): the T/C by setting is: (dose: 0.15 mg/kg/injection, schedule: Q01DX009 (ip), vehicle: saline) 127 % of control; (dose: 0.3 mg/kg/injection, schedule: Q01DX009 (ip), vehicle: saline) 131 and 149 % of control; (dose: 0.6 mg/kg/injection, schedule: Q01DX009 (ip), vehicle: saline) 145 % of control; (dose: 0.93 mg/kg/injection, schedule: Q04DX003 (ip), vehicle: saline) 136 % of control; (dose: 1.4 mg/kg/injection, schedule: Q04DX003 (ip), vehicle: saline) 127 % of control. Moreover, the survivor count is, setting by setting: (dose: 0.62 mg/kg/injection, schedule: Q01DX009 (ip), vehicle: saline) 3 of 6; (dose: 1.25 mg/kg/injection, schedule: Q01DX009 (ip), vehicle: saline) 2 of 6; (dose: 2.5 mg/kg/injection, schedule: Q01DX009 (ip), vehicle: saline) 0 of 6.

Consider `Ic1ncnc2c1ncn2C1CCCO1` (stereo not given), for which the T/C (dose: 100.0 mg/kg/injection, schedule: Q01DX009 (ip), vehicle: saline sonified) was 138 % of control [5 of 6 alive].

In the case of `Cc1ccc(NC(=O)N(CCCl)N=O)cc1NC(=O)N(CCCl)N=O`, the T/C (dose: 12.5 mg/kg/injection, schedule: Q01DX009 (ip), vehicle: other) was 139 % of control and the T/C (dose: 12.5 mg/kg/injection, schedule: Q04DX003 (ip), vehicle: other) is 144 % of control. For the same compound, the survivor count is, setting by setting: (dose: 25.0 mg/kg/injection, schedule: Q01DX009 (ip), vehicle: other) 5 of 6; (dose: 100.0 mg/kg/injection, schedule: Q04DX003 (ip), vehicle: other) 6 of 6; (dose: 200.0 mg/kg/injection, schedule: Q04DX003 (ip), vehicle: other) 1 of 6; (dose: 400.0 mg/kg/injection, schedule: Q04DX003 (ip), vehicle: other) 0 of 6.

With `CCCCCCOc1ccc(OCCCC[N+]2(CC)CCCCC2)cc1`, the survivor count (dose: 25.0 mg/kg/injection, schedule: Q01DX009 (ip), vehicle: saline) is 1 of 6.

As to `O=C(O)c1ccc(C(=O)O)c(C(=O)O)c1.[NH-]C1CCCCC1[NH-].[Pt+2]`, the T/C by setting is: (dose: 6.5 mg/kg/injection, schedule: Q01DX001 (ip), vehicle: sodium bicarbonate) 126 % of control; (dose: 10.8 mg/kg/injection, schedule: Q01DX001 (ip), vehicle: sodium bicarbonate) 129 % of control; (dose: 18.0 mg/kg/injection, schedule: Q01DX001 (ip), vehicle: sodium bicarbonate) 137 % of control.

Source of the values: PubChem BioAssay AID328 (DTP/NCI, 2004).
